PubChem BioAssay AID1224830 – NIAID, 2016
Here is an unselected part of about 18,000 reagents. In the full data, about 2,900 (16%) were called active. 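Calls are made per well; low scores hint the gene aids the LPS response, high scores that it dampens it.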 Repeated entries: four replicate wells of each siRNA pool.

Screen: 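Regulators of TLR4 signalling towards TNF-alpha in macrophage-like cells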 (primary screen)
Cell system: human THP-1 monocytic leukaemia cells, TNF dual-luciferase reporter clone, PMA-differentiated to macrophage-like cells
Reagent: siRNA pool against human genes, 50 nM
Timing: LPS for 4 h, given about 3 days after siRNA transfection
Treatment: bacterial LPS (TLR4 ligand), 10 ng/ml
Measured: 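Ratio of firefly to renilla light, scaled to the plate median and expressed as a robust z-score per replicate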
Direction: TNF reporter robust z-score: higher = stronger TNF reporter response to LPS
Hit rule: 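Each well counts as active if its z-score is over 2.8 or under -1.5; controls are left without a call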

no.	target	TNF reporter robust z-score	call
1	CAV1	-0.98	inactive
2	CAV1	-0.16	inactive
3	CAV1	-1.64	active
4	CAV1	0.16	inactive
5	ZNF234	0.14	inactive
6	ZNF234	-1.05	inactive
7	ZNF234	-0.56	inactive
8	ZNF234	-0.21	inactive
9	OR8J3	-1.63	active
10	OR8J3	-1.88	active
11	OR8J3	-1.83	active
12	OR8J3	-1.79	active
13	SMS	0.82	inactive
14	SMS	1.06	inactive
15	SMS	1.2	inactive
16	SMS	1.82	inactive
17	H2BC13	1.3	inactive
18	H2BC13	1.62	inactive
19	H2BC13	1.23	inactive
20	H2BC13	1.57	inactive
21	NUDCD3	-0.12	inactive
22	NUDCD3	0.38	inactive
23	NUDCD3	0.04	inactive
24	NUDCD3	1.2	inactive
25	CD93	-0.7	inactive
26	CD93	-0.84	inactive
27	CD93	-1.15	inactive
28	CD93	-0.93	inactive

The list goes on; the last 4 above are carried over.
no.	target	TNF reporter robust z-score	call
25	CD93	-0.7	inactive
26	CD93	-0.84	inactive
27	CD93	-1.15	inactive
28	CD93	-0.93	inactive
29	GOLPH3	0.73	inactive
30	GOLPH3	0.38	inactive
31	GOLPH3	0.21	inactive
32	GOLPH3	1.13	inactive
33	RBM33	-0.65	inactive
34	RBM33	-0.52	inactive
35	RBM33	-1.32	inactive
36	RBM33	-0.92	inactive
37	UCN2	-0.3	inactive
38	UCN2	0.46	inactive
39	UCN2	-0.07	inactive
40	UCN2	0.19	inactive
41	TMEM43	1.56	inactive
42	TMEM43	1.62	inactive
43	TMEM43	1	inactive
44	TMEM43	0.45	inactive
45	PPP2R1A	2.13	inactive
46	PPP2R1A	4.36	active
47	PPP2R1A	1.36	inactive
48	PPP2R1A	0.03	inactive
49	DMXL2	0.45	inactive
50	DMXL2	0.92	inactive
51	DMXL2	-0.3	inactive
52	DMXL2	-1.19	inactive
53	DPP6	-0.63	inactive
54	DPP6	0.65	inactive
55	DPP6	-0.1	inactive
56	DPP6	0.23	inactive
57	INPP1	-0.01	inactive
58	INPP1	-0.13	inactive
59	INPP1	-0.33	inactive
60	INPP1	0.39	inactive
61	ZNF641	-0.23	inactive
62	ZNF641	-0.55	inactive
63	ZNF641	-0.77	inactive
64	ZNF641	0.63	inactive
65	LAMTOR5	-1.03	inactive
66	LAMTOR5	3.39	active
67	LAMTOR5	-1.46	inactive
68	LAMTOR5	-1	inactive
69	NR1D2	-1.34	inactive
70	NR1D2	-0.83	inactive
71	NR1D2	-0.72	inactive
72	NR1D2	-0.47	inactive
73	EIF3L	0.17	inactive
74	EIF3L	-0.47	inactive
75	EIF3L	-0.12	inactive
76	EIF3L	0.87	inactive
